Laboratory results taken from paper doi:10.1101/2025.04.08.647777 (bioRxiv, 2025).
These are yes or no findings as the source states them, for the method shown. In cells and extracts the contact can be indirect. These calls come from enrichment with a bait or labelling near it, and not all partners need be listed. One block for each molecule: values may come before it.

Sequences of proteins named here, by UniProt entry; tags and fusion partners are left off. A change or cut given only in a name is not applied to a line headed by its entry.
UniProt O14576: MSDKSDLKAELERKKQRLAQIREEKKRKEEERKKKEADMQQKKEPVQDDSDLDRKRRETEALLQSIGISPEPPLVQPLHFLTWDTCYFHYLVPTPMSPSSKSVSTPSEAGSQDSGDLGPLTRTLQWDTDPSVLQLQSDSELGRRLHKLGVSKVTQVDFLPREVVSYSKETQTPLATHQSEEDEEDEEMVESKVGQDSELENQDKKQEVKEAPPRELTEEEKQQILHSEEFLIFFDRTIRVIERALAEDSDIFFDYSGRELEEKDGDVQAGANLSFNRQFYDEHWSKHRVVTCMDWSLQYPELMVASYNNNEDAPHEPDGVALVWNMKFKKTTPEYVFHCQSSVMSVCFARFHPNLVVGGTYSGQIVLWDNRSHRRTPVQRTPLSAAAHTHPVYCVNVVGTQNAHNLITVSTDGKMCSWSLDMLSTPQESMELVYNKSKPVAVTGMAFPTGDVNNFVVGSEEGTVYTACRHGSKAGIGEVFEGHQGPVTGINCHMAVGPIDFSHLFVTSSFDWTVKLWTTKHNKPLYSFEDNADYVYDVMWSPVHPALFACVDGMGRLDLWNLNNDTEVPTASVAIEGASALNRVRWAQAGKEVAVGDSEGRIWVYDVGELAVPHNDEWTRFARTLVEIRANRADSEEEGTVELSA
UniProt Q13561: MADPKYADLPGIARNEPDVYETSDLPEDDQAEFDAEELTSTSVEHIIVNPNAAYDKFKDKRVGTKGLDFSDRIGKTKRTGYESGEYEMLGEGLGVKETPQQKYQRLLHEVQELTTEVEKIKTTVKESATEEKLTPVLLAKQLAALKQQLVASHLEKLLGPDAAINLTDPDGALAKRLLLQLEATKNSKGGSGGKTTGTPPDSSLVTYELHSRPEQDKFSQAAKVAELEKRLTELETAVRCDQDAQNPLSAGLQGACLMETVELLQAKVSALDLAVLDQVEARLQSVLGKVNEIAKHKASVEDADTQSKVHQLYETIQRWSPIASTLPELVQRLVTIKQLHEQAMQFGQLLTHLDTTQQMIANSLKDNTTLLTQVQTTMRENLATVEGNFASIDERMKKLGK
UniProt O43237: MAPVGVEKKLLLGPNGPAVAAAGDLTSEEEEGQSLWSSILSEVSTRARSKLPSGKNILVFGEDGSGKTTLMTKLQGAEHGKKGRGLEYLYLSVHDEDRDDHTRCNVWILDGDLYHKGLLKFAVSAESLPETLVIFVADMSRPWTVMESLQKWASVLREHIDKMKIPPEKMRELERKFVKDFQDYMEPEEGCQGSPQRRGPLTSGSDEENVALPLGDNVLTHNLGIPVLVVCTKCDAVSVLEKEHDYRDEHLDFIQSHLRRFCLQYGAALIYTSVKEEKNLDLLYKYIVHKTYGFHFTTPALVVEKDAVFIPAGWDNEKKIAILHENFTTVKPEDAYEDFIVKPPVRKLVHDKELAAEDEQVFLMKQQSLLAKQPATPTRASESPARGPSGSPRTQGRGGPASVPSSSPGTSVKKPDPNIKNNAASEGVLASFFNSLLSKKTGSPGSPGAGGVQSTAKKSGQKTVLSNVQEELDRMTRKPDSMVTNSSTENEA
UniProt Q14204: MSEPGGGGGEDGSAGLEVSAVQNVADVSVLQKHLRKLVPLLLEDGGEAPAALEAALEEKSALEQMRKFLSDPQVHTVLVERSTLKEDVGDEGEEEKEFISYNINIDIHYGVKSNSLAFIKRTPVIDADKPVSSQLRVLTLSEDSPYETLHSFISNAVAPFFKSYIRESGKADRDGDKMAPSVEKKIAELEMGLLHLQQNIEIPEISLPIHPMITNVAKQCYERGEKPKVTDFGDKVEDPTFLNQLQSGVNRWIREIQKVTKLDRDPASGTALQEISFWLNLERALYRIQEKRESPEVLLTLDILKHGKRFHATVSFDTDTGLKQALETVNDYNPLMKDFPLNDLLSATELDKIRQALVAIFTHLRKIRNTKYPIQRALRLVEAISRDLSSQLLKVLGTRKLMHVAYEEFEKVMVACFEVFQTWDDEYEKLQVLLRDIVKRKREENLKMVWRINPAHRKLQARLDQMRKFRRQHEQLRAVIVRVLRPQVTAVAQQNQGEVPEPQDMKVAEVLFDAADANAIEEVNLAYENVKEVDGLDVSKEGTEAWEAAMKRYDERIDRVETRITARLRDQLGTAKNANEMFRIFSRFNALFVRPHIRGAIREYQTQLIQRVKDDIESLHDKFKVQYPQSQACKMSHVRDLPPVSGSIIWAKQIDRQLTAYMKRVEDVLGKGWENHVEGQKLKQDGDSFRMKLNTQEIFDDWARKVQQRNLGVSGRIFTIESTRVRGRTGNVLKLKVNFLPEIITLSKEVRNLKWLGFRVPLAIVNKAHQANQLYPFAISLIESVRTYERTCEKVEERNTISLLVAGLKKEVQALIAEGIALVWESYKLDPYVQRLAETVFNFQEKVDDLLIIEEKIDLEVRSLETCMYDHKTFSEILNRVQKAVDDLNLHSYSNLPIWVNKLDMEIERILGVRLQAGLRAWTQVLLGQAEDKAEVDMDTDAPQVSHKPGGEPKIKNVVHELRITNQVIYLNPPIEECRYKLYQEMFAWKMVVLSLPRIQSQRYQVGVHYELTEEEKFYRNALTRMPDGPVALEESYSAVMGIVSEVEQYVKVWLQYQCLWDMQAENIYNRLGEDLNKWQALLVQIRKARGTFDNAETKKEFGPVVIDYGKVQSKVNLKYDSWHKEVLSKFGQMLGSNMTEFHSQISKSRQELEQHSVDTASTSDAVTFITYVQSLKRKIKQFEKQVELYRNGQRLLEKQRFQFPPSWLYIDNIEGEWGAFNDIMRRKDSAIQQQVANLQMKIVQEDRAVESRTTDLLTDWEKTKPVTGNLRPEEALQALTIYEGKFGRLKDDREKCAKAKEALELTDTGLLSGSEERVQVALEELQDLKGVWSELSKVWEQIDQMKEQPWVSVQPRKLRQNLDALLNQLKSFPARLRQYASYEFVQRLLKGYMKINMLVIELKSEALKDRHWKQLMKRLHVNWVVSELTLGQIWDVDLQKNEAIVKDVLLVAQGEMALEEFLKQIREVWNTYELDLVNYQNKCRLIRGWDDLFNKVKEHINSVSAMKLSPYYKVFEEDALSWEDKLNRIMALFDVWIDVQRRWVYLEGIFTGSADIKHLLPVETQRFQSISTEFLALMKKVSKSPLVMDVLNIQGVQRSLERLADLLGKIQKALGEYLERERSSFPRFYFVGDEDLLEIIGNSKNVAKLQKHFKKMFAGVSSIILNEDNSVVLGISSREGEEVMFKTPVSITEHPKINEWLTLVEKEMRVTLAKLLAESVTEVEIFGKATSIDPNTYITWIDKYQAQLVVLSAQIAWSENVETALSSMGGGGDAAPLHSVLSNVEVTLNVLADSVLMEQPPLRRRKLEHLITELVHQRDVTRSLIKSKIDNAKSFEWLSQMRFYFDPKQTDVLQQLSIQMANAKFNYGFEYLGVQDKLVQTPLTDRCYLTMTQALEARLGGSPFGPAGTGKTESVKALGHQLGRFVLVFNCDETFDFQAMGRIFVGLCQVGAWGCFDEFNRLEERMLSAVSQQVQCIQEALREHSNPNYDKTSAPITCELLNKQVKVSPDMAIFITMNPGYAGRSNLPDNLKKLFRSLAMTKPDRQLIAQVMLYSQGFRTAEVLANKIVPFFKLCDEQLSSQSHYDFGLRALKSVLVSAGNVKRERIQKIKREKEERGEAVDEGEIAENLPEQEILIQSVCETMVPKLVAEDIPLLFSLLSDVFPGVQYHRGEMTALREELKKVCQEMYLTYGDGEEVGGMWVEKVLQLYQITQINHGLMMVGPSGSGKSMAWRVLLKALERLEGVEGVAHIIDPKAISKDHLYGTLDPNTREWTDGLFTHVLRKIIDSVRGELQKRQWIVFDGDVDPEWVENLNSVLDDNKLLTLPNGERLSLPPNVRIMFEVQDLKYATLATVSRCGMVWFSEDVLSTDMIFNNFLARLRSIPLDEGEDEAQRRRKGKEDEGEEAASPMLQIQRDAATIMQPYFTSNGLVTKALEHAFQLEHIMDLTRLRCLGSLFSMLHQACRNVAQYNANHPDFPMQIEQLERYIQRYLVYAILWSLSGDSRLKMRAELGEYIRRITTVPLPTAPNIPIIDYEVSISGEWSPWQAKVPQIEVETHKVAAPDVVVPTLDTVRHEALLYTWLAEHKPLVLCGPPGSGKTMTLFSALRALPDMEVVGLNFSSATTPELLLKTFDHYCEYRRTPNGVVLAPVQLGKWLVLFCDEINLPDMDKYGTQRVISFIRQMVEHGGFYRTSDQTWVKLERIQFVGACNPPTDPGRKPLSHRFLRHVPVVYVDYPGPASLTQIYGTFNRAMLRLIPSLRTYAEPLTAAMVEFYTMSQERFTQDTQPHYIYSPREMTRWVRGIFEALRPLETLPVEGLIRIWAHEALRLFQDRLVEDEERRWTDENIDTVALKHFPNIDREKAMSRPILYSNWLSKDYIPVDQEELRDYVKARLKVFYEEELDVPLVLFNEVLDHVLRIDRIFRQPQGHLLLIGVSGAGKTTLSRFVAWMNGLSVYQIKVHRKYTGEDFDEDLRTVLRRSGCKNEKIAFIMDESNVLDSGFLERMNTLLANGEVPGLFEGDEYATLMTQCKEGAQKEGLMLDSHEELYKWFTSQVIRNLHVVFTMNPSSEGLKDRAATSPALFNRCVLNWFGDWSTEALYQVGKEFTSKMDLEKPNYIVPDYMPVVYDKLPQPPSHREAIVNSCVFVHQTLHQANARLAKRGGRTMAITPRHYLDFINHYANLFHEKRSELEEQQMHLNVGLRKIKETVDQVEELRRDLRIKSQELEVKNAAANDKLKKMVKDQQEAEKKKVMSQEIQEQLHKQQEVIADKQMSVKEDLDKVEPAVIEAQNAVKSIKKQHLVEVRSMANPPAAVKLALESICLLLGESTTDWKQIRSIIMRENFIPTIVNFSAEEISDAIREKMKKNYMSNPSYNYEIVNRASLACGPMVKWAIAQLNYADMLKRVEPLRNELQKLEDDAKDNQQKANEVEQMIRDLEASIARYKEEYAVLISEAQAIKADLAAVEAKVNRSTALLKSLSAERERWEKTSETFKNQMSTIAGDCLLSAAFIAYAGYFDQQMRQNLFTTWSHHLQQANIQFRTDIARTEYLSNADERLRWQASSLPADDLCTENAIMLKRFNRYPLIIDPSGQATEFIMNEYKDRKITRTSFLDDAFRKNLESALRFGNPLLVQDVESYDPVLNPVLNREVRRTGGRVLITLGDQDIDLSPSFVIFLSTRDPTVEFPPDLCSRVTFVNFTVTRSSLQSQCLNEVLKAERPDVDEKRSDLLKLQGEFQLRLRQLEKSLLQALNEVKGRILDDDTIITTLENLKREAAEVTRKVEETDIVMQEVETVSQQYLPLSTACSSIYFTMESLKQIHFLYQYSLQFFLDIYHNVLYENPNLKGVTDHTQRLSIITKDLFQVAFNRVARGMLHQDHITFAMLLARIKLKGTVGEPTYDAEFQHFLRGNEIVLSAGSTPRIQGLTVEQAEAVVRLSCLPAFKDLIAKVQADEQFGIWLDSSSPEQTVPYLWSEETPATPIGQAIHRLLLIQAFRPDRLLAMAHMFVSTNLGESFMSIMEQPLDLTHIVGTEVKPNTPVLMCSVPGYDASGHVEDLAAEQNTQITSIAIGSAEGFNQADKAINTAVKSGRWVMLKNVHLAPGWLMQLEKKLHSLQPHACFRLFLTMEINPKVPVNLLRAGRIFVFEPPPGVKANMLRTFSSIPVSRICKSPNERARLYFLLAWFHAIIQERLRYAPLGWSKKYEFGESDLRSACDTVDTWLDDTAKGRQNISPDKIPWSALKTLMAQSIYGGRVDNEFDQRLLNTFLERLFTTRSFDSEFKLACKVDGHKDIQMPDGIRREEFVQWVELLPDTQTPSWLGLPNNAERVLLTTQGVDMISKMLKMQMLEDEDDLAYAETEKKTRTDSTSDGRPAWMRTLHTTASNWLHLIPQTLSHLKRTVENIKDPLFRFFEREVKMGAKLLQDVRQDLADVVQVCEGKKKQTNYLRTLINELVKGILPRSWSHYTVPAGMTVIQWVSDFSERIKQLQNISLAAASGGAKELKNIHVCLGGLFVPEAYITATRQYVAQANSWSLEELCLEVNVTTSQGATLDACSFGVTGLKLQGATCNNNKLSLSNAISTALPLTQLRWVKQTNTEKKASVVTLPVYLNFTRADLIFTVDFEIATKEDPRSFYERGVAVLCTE
UniProt O75935: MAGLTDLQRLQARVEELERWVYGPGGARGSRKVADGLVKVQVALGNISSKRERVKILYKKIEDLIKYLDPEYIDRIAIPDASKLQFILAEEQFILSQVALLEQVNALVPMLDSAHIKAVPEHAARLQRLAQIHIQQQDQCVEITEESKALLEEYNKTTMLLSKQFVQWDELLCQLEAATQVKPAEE

Key:
Assay in all cases: affinity purification with mass spectrometry
SFB-DIC1 WT = SFB-DIC1 WT (UniProt O14576)
SFB-DIC1 K42R = SFB-DIC1 K42R (UniProt O14576)
SFB-Lis1 WT = molecular target: T1, SFB-Lis1 WT (UniProt P43034)
T1 sequence: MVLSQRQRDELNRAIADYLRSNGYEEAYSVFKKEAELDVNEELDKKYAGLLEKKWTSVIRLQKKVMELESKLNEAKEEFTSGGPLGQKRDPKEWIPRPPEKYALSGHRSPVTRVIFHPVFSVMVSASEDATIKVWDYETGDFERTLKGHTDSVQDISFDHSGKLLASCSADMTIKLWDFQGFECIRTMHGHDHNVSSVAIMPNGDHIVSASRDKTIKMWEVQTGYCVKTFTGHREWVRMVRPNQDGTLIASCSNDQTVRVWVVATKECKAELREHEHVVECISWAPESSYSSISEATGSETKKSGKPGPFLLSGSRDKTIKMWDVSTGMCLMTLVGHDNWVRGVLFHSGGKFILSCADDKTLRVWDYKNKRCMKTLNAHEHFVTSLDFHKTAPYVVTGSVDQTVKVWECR

Molecule: dynactin subunit p50 (endogenous) (from UniProt Q13561 1-401)
binding (SFB-DIC1 WT): binds

Molecule: dynactin subunit p62 (endogenous) (from UniProt Q9UJW0 1-460)
binding (SFB-DIC1 WT): binds

B1: Nde1 (endogenous) (protein, UniProt Q9NXR1 1-335)
chain: MEDSGKTFSSEEEEANYWKDLAMTYKQRAENTQEELREFQEGSREYEAELETQLQQIETRNRDLLSENNRLRMELETIKEKFEVQHSEGYRQISALEDDLAQTKAIKDQLQKYIRELEQANDDLERAKRATIMSLEDFEQRLNQAIERNAFLESELDEKENLLESVQRLKDEARDLRQELAVQQKQEKPRTPMPSSVEAERTDTAVQATGSVPSTPIAHRGPSSSLNTPGSFRRGLDDSTGGTPLTPAARISALNIVGDLLRKVGALESKLASCRNLVYDQSPNRTGGPASGRSSKNRDGGERRPSSTSVPLGDKGLDTSCRWLSKSTTRSSSSC
binding (SFB-Lis1 WT): binds

Next, values leading:

binding (SFB-DIC1 WT): binds
Molecule: LIC2 (endogenous) (from UniProt O43237 1-492)

binding (SFB-DIC1 K42R): binds
binding (SFB-DIC1 WT): binds
Molecule: dynein heavy chain (DHC), endogenous (from UniProt Q14204 1-4646)

binding (SFB-DIC1 WT): binds
Molecule: dynactin subunit p22 (endogenous) (from UniProt O75935 1-186)
